The other results are listed elsewhere or left out.
molecular target: OsWRKY34 (Oryza sativa, UniProt Q0JBA9 1-250); assay: protein-binding microarray (RPBM); PBS, 2% BSA, 51.3 ng/ul salmon testes DNA, 50 uM zinc acetate, 200 nM TF, 25 C, 1 h; high values mean tight binding; conditions: protein: recombinant; tags: N-terminal polyhistidine and DsRed monomer fusion (pET32a); label: CyDye5-dUTP incorporated in the synthesized complementary strand; 3' TTTTT single-stranded linker to array surface; dsDNA, one strand shown
Outline: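 Binding signal is defined as the fluorescence intensity of each feature in arbitrary units, read on an Axon 4000B scanner. Transcription factors with N-terminal polyhistidine and DsRed fusions came from E. coli BL21-CodonPlus and were purified on Ni–NTA. They were incubated at 200 nM for 1 h at 25 °C on a custom Agilent array that had been made double-stranded with Cy5-dUTP, with 50 µM zinc acetate present, and the array was washed.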

Amino acid sequences for entries named in this document (tags omitted).
UniProt Q0JBA9, entry or part of it: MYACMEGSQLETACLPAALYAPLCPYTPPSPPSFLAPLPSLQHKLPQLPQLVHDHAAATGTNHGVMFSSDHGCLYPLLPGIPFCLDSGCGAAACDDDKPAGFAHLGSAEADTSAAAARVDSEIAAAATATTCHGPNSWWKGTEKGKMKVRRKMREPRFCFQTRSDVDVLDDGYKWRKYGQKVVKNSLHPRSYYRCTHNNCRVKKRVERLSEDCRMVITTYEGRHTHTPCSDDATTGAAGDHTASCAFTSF

Sequence	binding signal
GCCGCCACTTTAACCAAGCCTCCTTGATCACACTCCTAATCGGAGTCACCTAGTGCAG	8760 fluorescence intensity (a.u.)
ATAACTATTTTCAATTTAATTTGTTCTTTTTGTTGCAACTCGGAGTCACCTAGTGCAG	9170 fluorescence intensity (a.u.)
GGTGCAGTTAGTTGTGCATACCCGTCTCGTTCAGTTTCATCGGAGTCACCTAGTGCAG	11200 fluorescence intensity (a.u.)
GAAGGTTGCTGTTGCTTGTTGTTGGTAGTGTCTTGTGTGCCGGAGTCACCTAGTGCAG	9090 fluorescence intensity (a.u.)
AAGCCTGAAACCACTAGCACTTTGTATCAGTATCACCGTTCGGAGTCACCTAGTGCAG	9270 fluorescence intensity (a.u.)
GTTAGACCATCGGTTAGACAGGCGTACCTCTGTTTGGATCCGGAGTCACCTAGTGCAG	8240 fluorescence intensity (a.u.)
TCTTATCCATACCCTGGCCCACCTCGCCCCACGCCGCGTCCGGAGTCACCTAGTGCAG	9650 fluorescence intensity (a.u.)
TTTTTTTATTTTTTTTGAAATATTTTTTGTTGGGTTTTTTCGGAGTCACCTAGTGCAG	13100 fluorescence intensity (a.u.)
TGCTAGTGCTGTTCACTGTTTATACTTGTCGTACTCCAAACGGAGTCACCTAGTGCAG	9950 fluorescence intensity (a.u.)
TGATATGATCTCTAACTTTGCTTCTGTTTTGACTCTTTAGCGGAGTCACCTAGTGCAG	8220 fluorescence intensity (a.u.)
AGCTCAGTCCACCCACCGCTCTCACTTCCATACGCGGCCCCGGAGTCACCTAGTGCAG	8870 fluorescence intensity (a.u.)
TGTTTGCTTATTACTATTTTTTTTGGGGCGGGAAATTAAACGGAGTCACCTAGTGCAG	14100 fluorescence intensity (a.u.)
AATAGATTTTGTTGGCAGCTCATGAGTAGTAAAATTATTTCGGAGTCACCTAGTGCAG	8070 fluorescence intensity (a.u.)
TGTCATGCTGATCCTACTCCTCACTTGCAAAAATCCTGCGCGGAGTCACCTAGTGCAG	8660 fluorescence intensity (a.u.)
TCTGCTGCGCGGCTGCTCGTTACGTTGGGTGTTATTTGATCGGAGTCACCTAGTGCAG	8410 fluorescence intensity (a.u.)
TAATACCCCACTTATTTTGTCTTTTACCTATAAACTTTATCGGAGTCACCTAGTGCAG	8470 fluorescence intensity (a.u.)
GTATTTTCGATTGTTTACACTATAATTAGACTGTTTTATACGGAGTCACCTAGTGCAG	8600 fluorescence intensity (a.u.)
CTCATTCTGCGTGCCCTTACTTAATCCTCATCCTCATTACCGGAGTCACCTAGTGCAG	13600 fluorescence intensity (a.u.)
CCCGCCCTGCTCCCGTGCTGCCACCAACAACGCGATCACCCGGAGTCACCTAGTGCAG	8500 fluorescence intensity (a.u.)
TAATCACGAGACCCGCACTCTTTTTTTGCGTCGCTCGAGCCGGAGTCACCTAGTGCAG	9650 fluorescence intensity (a.u.)
TACTGGATCTCTGCTTCTGACCAAAATGTTCCGCATTGAACGGAGTCACCTAGTGCAG	8560 fluorescence intensity (a.u.)

Sequence	binding signal
CTCGTTCTCCACCTTATCACCCAACCCGTCGTGCCAATCCCGGAGTCACCTAGTGCAG	9960 fluorescence intensity (a.u.)
TTTGCACTATTCACGTTCAACGTTTGATCGTTCGTTTTATCGGAGTCACCTAGTGCAG	9750 fluorescence intensity (a.u.)
CCAGTAGTACGCATATATCCATCGAGATTAATCGAAAACTCGGAGTCACCTAGTGCAG	8330 fluorescence intensity (a.u.)
GAGTAAATGCTATAGTTACATATCCGTTTGTTTATTTGTGCGGAGTCACCTAGTGCAG	8130 fluorescence intensity (a.u.)
GCATTTTGTTTTCCTCCATTTGGTGAGCTTCCTTTTCATCCGGAGTCACCTAGTGCAG	10800 fluorescence intensity (a.u.)
CCCTCCGTTCACCTGTGGTAATCTTAGCAGCGTGTCGTCTCGGAGTCACCTAGTGCAG	8200 fluorescence intensity (a.u.)
CTATCTCATTGTTTTACACGTGGCTGCTACTTCTCCTGCTCGGAGTCACCTAGTGCAG	14700 fluorescence intensity (a.u.)
TTGTATTTATTCACTCATTGGTTTTATGTACATGTCATATCGGAGTCACCTAGTGCAG	12500 fluorescence intensity (a.u.)
AGTATCCAATATTCTTGTTGTCTTTCACCTTTTGGTCTAGCGGAGTCACCTAGTGCAG	11600 fluorescence intensity (a.u.)
TGGGTGGAGATGTGGCGTGCGTGGGGTGGTGGTTGATCTCCGGAGTCACCTAGTGCAG	12800 fluorescence intensity (a.u.)
CCGCGCGCGTATCCGTGATCTCTCTTTTCCCGCGCTCCTTCGGAGTCACCTAGTGCAG	8340 fluorescence intensity (a.u.)
AGTCGGGCATTTTTTTTAACCTCAGCATTTATGGGCTTTTCGGAGTCACCTAGTGCAG	9120 fluorescence intensity (a.u.)
TGCACGCTGTCGTCCCTCTCCCTCTCATTGTTCCATTCATCGGAGTCACCTAGTGCAG	9480 fluorescence intensity (a.u.)
TCTATTGGGGCGGGGTGTGGTAAGGAAATTACAGTTTGCACGGAGTCACCTAGTGCAG	17700 fluorescence intensity (a.u.)
TCTATCGTTTATGGATTTAACCACGGTTTCTTTGTCCTTGCGGAGTCACCTAGTGCAG	8830 fluorescence intensity (a.u.)
TCGTCTGTTCTTGTTATTCTTGGTTTCTTCCGGGTACTGACGGAGTCACCTAGTGCAG	10300 fluorescence intensity (a.u.)
ATAAGTTTTTCTAGGGGTCTACTTACGAAATAAGTTTTTCCGGAGTCACCTAGTGCAG	8080 fluorescence intensity (a.u.)
TTATATTTTTTTTGGCCGTATTTCGTAGCGAGAAAATTTTCGGAGTCACCTAGTGCAG	10400 fluorescence intensity (a.u.)
GAATTATTTGGTCAGTGTCACTTGCTGCCAGGACCCAACACGGAGTCACCTAGTGCAG	8390 fluorescence intensity (a.u.)
ACCTCTTTTTCTCTTTTTCTCGCTCGCCTCCGTACGCCACCGGAGTCACCTAGTGCAG	11100 fluorescence intensity (a.u.)
GTGTCCCTTTTGTGTGTTCTTTATTACTATATGTGACAGTCGGAGTCACCTAGTGCAG	12200 fluorescence intensity (a.u.)

An excerpt of these results, as a markdown table.

| Sequence | binding signal |
| --- | --- |
| AGTCGGGCATTTTTTTTAACCTCAGCATTTATGGGCTTTTCGGAGTCACCTAGTGCAG | 9120 fluorescence intensity (a.u.) |
| TGCACGCTGTCGTCCCTCTCCCTCTCATTGTTCCATTCATCGGAGTCACCTAGTGCAG | 9480 fluorescence intensity (a.u.) |
| TCTATTGGGGCGGGGTGTGGTAAGGAAATTACAGTTTGCACGGAGTCACCTAGTGCAG | 17700 fluorescence intensity (a.u.) |
| TCTATCGTTTATGGATTTAACCACGGTTTCTTTGTCCTTGCGGAGTCACCTAGTGCAG | 8830 fluorescence intensity (a.u.) |
